Laboratory results published in US7183316B2, “Treatment of HPV caused diseases” (Cornell Research Foundation, Inc., priority 2001, dated 2007).
Entries after “also recorded” stand apart in the source; their conditions may differ. At least one structure is not confirmed: it was looked up by name or label, or the drawing left a doubt.

How the values were obtained:
HPV16 E7 mRNA [1] = assay: Northern blotting for HPV16 E7 mRNA in CaSki cells; assay type: cell-based; conditions: 24 hours incubation, concentration series in μM
Method: (§1) Ciglitazone was incubated with CaSki cells (prototypic cervical cancer cells known to be infected with HPV16). The number of CaSki cells was 3×10^6 in a 10 cm diameter dish. Incubation were carried out for 24 hours with 0, 1, 5, 10 and 20 μM ciglitazone.
(§2) Western blotting was carried out to determine levels of HPV16 E7 protein. […] Northern blotting was carried out to determine levels of HPV16 E7 mRNA. […] Nuclear run-off testing was carried out to determine level of gene transcription.
NS-398 at concentrations of 0, 10, 20, 40, 60, 100, 250 and 500 μM was incubated with CaSki cells (3×10^6 in a 10 cm diameter dish) for 24 hours.
Northern blotting was carried out to determine HPV16 E7 mRNA levels in each case.

HPV16 E7 protein [2] = assay: EGF-mediated induction of HPV16 E7 protein in CaSki cells (Western blot); assay type: cell-based; conditions: EGF 10 nanograms/ml, 0, 5, 10 or 15 μM, 24 hours
[3] = system: HPV16 upstream regulatory region (URR); assay: HPV16 upstream regulatory region luciferase reporter transfected into CaSki cells; assay type: cell-based; conditions: 24 hours, 0-25 μM, FIG. 1
Method: HPV16 upstream regulatory region (URR) ligated to luciferase gene transfected into CaSki cells is incubated for 24 hours with ciglitazone and with 15d-PGJ2 (in each case, concentration of 0 μM, 5 μM, 10 μM, 15 μM, 20 μM and 25 μM). […] Note that cells contain endogenous activator that drives expression of E7, and ciglitazone and 15d-PGJ2 are shown to inhibit the activation.

HPV16 E7 protein [4] = assay: Western blotting for HPV16 E7 protein in CaSki cells; assay type: cell-based; conditions: 24 hours incubation, concentration series in μM
Method: as §1, §2
(§3) Celebrex™ at concentrations of 0, 0.1, 0.25, 0.5, 1.0, 2.5 and 5.0 μM was incubated with CaSki cell (3.0×10^6 in a 10 cm diameter dish) for 24 hours.

HPV16 E7 mRNA [5] = assay: EGF-mediated induction of HPV16 E7 mRNA in CaSki cells (Northern blot); assay type: cell-based; conditions: Background Example 5: EGF 10 nanograms/ml; 50 or 100 μM sulindac sulfide, 15 μM ciglitazone, 15 μM 15d-PGJ2
Method: Epidermal growth factor at 10 nanograms/ml was added to CaSki cells (3×10^6 in a 10 cm diameter dish) together with 50 μM sulindac sulfide or 100 μM sulindac sulfide or 15 μM ciglitazone or 15 μM 15d-PGJ2.
Northern blot testing was carried out for HPV16 E7 mRNA.
Epidermal growth factor (EGF) at 10 nanograms/ml was incubated with CaSki cells (3×10^6 in a 10 cm diameter dish) and 100 μM ibuprofen, 100 μM piroxicam, 100 μM S-naproxen, 100 μM aspirin, 100 μM sulindac sulfone, 100 μM sulindac sulfide, 100 μM naproxen, 100 μM indomethacin, 100 μM flufenamic acid and for comparison purposes 25 μM 15d-PGJ2.

[6] = system: HPV16 E7 gene transcription; assay: Nuclear run-off testing of gene transcription in CaSki cells; assay type: cell-based; conditions: 24 hours, 0, 1, 5, 10 and 20 μM
HPV16 E6 mRNA = assay: Northern blotting for HPV16 E6 mRNA in CaSki cells; assay type: cell-based; conditions: Background Example 7: CaSki cells, 24 hours; curcumin 5 μM, resveratrol 15 μM, ciglitazone 20 μM, 15d-PGJ2 15 μM
Method: as §3
Curcumin (5 μM), resveratrol (15 μM), ciglitazone (20 μM) or 15d-PGJ2 (15 μM) were incubated with CaSki cells (3×10^6 in a 10 cm diameter dish) for 24 hours.
Northern blot testing was carried our for HPV16 E6 mRNA.

HPV11 = assay: Treatment of patient with perianal warts (condylomata acuminata); assay type: in vivo, human; conditions: 4 mg orally twice each day for 8 weeks
[7] = system: HPV mediated cutaneous warts; assay: Topical treatment of patient with HPV mediated cutaneous warts; assay type: in vivo, human; conditions: ointment containing 5%, twice a day, three months
Description: A child presents to a local dermatologist because of small cutaneous growths on the hand. A diagnosis of HPV mediated cutaneous warts is made. The patient is instructed to apply an ointment containing 5% rosiglitazone to the affected areas twice a day. […] The same results occur with an ointment containing 5% resveratrol instead of the ointment containing rosiglitazone.

## CC1(COc2ccc(CC3SC(=O)NC3=O)cc2)CCCCC1 (stereo not drawn) [ciglitazone]
HPV16 E7 mRNA [1]
  levels of HPV16 E7 mRNA (Northern blot): suppression; also recorded: dose dependent reduction in E7 mRNA
HPV16 E7 protein [2]
  EGF-mediated induction of HPV16 E7 protein (Western blot): dose dependent inhibition
[3]
  luciferase activity of HPV16 upstream regulatory region: dose dependent inhibition
HPV16 E7 protein [4]
  levels of HPV16 E7 protein (Western blot): suppression; also recorded: dose dependent inhibition of E7 protein expression
HPV16 E7 mRNA [5]
  EGF-mediated induction of HPV16 E7 mRNA (Northern blot): inhibition
[6]
  level of gene transcription (nuclear run-off): dose dependent reduction of gene transcription
HPV16 E6 mRNA
  HPV16 E6 mRNA (Northern blot): downregulation

## CN(CCOc1ccc(CC2SC(=O)NC2=O)cc1)c1ccccn1 (stereo not drawn) [rosiglitazone]
HPV11
  perianal warts after treatment: no longer detectable
[7]
  cutaneous warts after topical treatment: no longer detectable
